This is an account of results in patent US7767817B2, “Water soluble boronic acid fluorescent reporter compounds and methods of use thereof” (priority 2003, dated 2010).

A short description of this data set: Fluorescence intensity pH profile (apparent pKa). It is filed as physicochemical. Conditions: for increase in fluorescence intensity: pH from 3 to 10. The text has this: Since the fluorescence intensity increase upon binding with a sugar seems to be a general phenomenon, the fluorescence change mechanism of compound 5 at pH 7.4 was investigated. For this purpose, the fluorescence pH profiles of both compound 5 alone and compound 5 in the presence of fructose (0.5 M) were studied. The fluorescence intensity of 5 at 334 nm in the absence of sugars decreased upon changing the pH from 3 to 12 (FIG. 3). An apparent pKa of 7.0 was observed, which is assigned to the boronic acid moiety. […] It is well-known that the binding of a diol to boronic acid often lowers the pKa of the boron species) (Springsteen, G.; Wang, B. Tetrahedron 2002, 58, 5291-5300). Therefore, the pKa, which drops from 7.0 to 4.0, can also be reasonably assigned to boron. […] It seems that the fluorescence intensity change of compound 5 is also due to diol's perturbation as that of 8-quinolineboronic acid.
To examine the relationship between the fluorescence intensity changes and the boron ionization states, the pH profile of the fluorescence intensity in the absence and presence of fructose and glucose at a fixed concentration (50 mM) was also studied (FIG. 6). […] It is worth mentioning that the pKa of the protonated dimethyl amino group of 1 is […] the emission wavelength of 1 with the protonated dimethyl amino group at low pH is about 238 nm. Therefore, the fluorescence intensity of 1 at 445 nm was not affected by the protonated dimethyl amino group. The fluorescence intensity changes correspond to the boronic acid pKa (9.4) and therefore hybridization changes, which was responsible for the fluorescence intensity changes observed.
Since the fluorescence intensity increase upon binding with a sugar seems to be a general phenomenon, next the conditions under which optimal fluorescence intensity changes are observed upon addition of a sugar was investigated. For this purpose, the fluorescence pH profiles of both compound 6 alone and in the presence of fructose (0.5 M) were studied. The fluorescence intensity of 6 in the absence of sugars increased by 17-fold upon changing the pH from 3 to 12 (FIG. 10). […] Furthermore, one would expect the pKa values of the other two ionizable groups, the carboxylic acid and the quinolinium groups, to be less than 7. Therefore, assigning the pKa at 7.9 to the boronic acid moiety is the most reasonable option. […] It is well-known that the binding of a diol to boronic acid often lowers the pKa of the boron species. […] Upon addition of fructose, the pKa of the boron drops to about 5.2, which ensures that most of the boron species are in the anionic tetrahedral state at physiological pH.
Since the fluorescence intensity increase upon binding with a sugar seems to be a general phenomenon, the use of 5-QBA functions as a fluorescent probe for diols was investigated. The fluorescence pH profiles of both 5-QBA alone and 5-QBA in the presence of D-fructose (0.5 M) were investigated. […] In order to assign each pKa, the ^11B NMR spectra of 5-QBA and its ester in a mixed deuterated methanol-water (1:1) solvent at different pH were obtained. Methanol was used so that the concentration of 5-QBA can be increased to 57 mM so as to allow for a meaningful NMR determination within a reasonable period of time.
To understand the structural features associated with the fluorescence intensity changes, we studied the pH profiles of the fluorescence intensity in the absence (FIG. 18) and presence of fructose and glucose at a fixed concentration (50 mM). […] The fluorescence intensity at 513 nm increased very quickly when pH increased from 1.78 to 7.04 (thin lines in FIG. 18), and then decreased in the pH range of 7.04-10.54 (thick lines in FIG. 18).

Where no unit stands, none is given here, and values compare only within one read-out.

Consider `CN(C)c1ccc(B(O)O)c2ccccc12` [Compound 1, 4-(dimethylamino)-naphthalene boronic acid], for which the “increase in fluorescence intensity” value was “over 140 fold” (presence of fructose 50 mM) and “over 140 fold” (presence of glucose 50 mM). The “emission intensity increase at 445 nm” value (pH from 3 to 12, absence of any carbohydrate) is given as 168 fold.
On to `OB(O)c1cccc2ncccc12` [Compound 3], for which the “pH of the highest fluorescence intensity change” value (with versus without 0.5 M D-fructose) came to 5.8.
Turning to `O=C(O)c1cc(-c2ccc(B(O)O)cc2)nc2ccccc12` [Compound 6, 2-(4-phenylboronic acid)-quinoline-4-carboxylic acid], the fluorescence intensity increase reads like this: (pH from 2 to 10, presence of fructose 0.5 M) 35 fold; (pH from 3 to 12, absence of sugars) 17 fold.
Turning to `CN(C)c1cccc2c(B(O)O)cccc12` [Compound 7, 5-(Dimethylamino)-naphthalene-1-boronic acid], the “intensity decrease at 335 nm” value (pH from 1.78 to 7.04) is listed as “over 30 fold”.
